PubChem BioAssay AID743402 (Broad Institute, 2014)
The whole screen tested about 1,200 compounds, of which about 140 (12%) were called active.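 The calls were made as follows: active = fitted curve falls past -35% activity change at a dose under twice the top valid dose, in every replicate test; inconclusive = replicate tests disagree on the call; inactive = the rest, including activity in the opposite direction.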 Most of the strongest results are missing from this list.

Experiment: restoration of mutant CFTR halide transport – FRT cells, YFP quenching, cherry-pick, dose response (AID 743402);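 also: compounds act as correctors raising surface CFTR-F508del before acute activation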
Conditions: FRT CFTR-F508del YFP iodide quenching, 24 h, channel opened with forskolin and a potentiator; at 26 µM (top of the series) unless noted

Activity change, negative = more quenching (active), inactive:
C/C=C/c1ccc([C@@H]2[C@H](CO)N(CC3CC3)[C@H]2CNC(=O)c2ccccc2)cc1 3.33% [at 23.5 µM]
C[C@@H]1CN([C@H](C)CO)S(=O)(=O)c2ccc(C#CC3CC3)cc2O[C@H]1CN(C)Cc1ccccn1 6.46%
Cc1c(C(=O)N/N=C/c2c(O)ccc3ccccc23)nnn1-c1nonc1N 3.33%
COc1ccccc1N1CCN(/N=C/C=C\c2ccccc2[N+](=O)[O-])CC1 13.3%
O=C(N/N=C/c1cccs1)c1cc(C2CC2)nc2ccccc12 13.3%
COc1ccc2c(c1)/C(=C/c1cc(OC)c(OC)c(OC)c1)C(=O)N2 20.2%
CCCCn1c(CN2CCN(c3cccc(Cl)c3)CC2)nc2c1c(=O)[nH]c(=O)n2C 15.6%
COc1ccccc1S(=O)(=O)N1CC[C@@H]2[C@@H](CO)N(C)c3ccc(-c4ccc(F)cc4)cc3[C@@H]21 -20.1% [at 23.5 µM]
O=C(c1cccc(S(=O)(=O)N2CCN(c3ccc(F)cc3)CC2)c1)N1CCCC(C(F)(F)F)C1 (stereo not drawn) 6.67%
CCc1nc(N)nc(N)c1-c1ccc(Cl)c([N+](=O)[O-])c1 6.97%
COc1cccc(-c2ccc([C@H]3[C@@H](CO)N(C(=O)c4ccccn4)[C@H]3C#N)cc2)c1 19.3%
Clc1ccc2c(c1)-c1ccccc1C1=NCCN12 -1.51%
COc1ccc(-c2nc(-c3cccc(C)c3)no2)cc1OC 10%
O=C(NCCOc1ccccc1F)c1cc([N+](=O)[O-])ccc1N1CCOCC1 23.3%
O=C(COC(=O)Cc1ccsc1)Nc1cccc(F)c1 3.33%
O=S(=O)(Cc1ccc(Cl)cc1Cl)c1ccc(Cl)cc1 -22.5%
CCN(CC)c1ccc(/C=N/NC(=O)c2cnccn2)cc1 -23.3%
Cc1cc(C)c(C(=O)NC2CCCc3c2cnn3-c2cccc(C)c2C)o1 (stereo not drawn) 23.9%
Cc1ccccc1-c1nc(CS(=O)(=O)CC(=O)NCc2ccccc2)c(C)o1 8.28%
CC(C)NC(=O)c1ccc(COc2cccc3ccccc23)o1 6.97%
Cc1ccc2[nH]c(-c3ccccc3)cc(=O)c2c1 -12.5%
Cc1cc(C(=O)CN2CCN(CC(=O)Nc3ccc(F)cc3)CC2)c(C)n1C1CC1 13.1%
CCOC(=O)c1c(NC(=O)C(=O)N/N=C/c2ccccc2O)sc2c1CCCCC2 0.208%
COc1cc(C(=O)Nc2ccccc2C(=O)Nc2ccccn2)cc(OC)c1OC 19.4%
Oc1ccc(/C=N/Nc2nc(-c3ccccc3F)nc3ccccc23)c(O)c1 3.33%
C/C=C/c1ccc([C@@H]2[C@H](CO)N3CCCCN(S(=O)(=O)c4ccccc4)C[C@@H]23)cc1 7.14%
COc1ccccc1NS(=O)(=O)c1cc(C(=O)N2CCCCCC2)ccc1C 8.99%
O=Cc1ccccc1OCc1ccc2c(c1)OCO2 -6.97%
CC(C)C[C@H]1CN([C@@H](Cc2ccc(O)cc2)CN2CCC[C@H]2CN2C(=O)C(=O)NC[C@@H]2Cc2ccccc2)C(=O)C(=O)N1CC1CCCCC1 33.5%
CC(=O)Nc1ccc(S(=O)(=O)NC2=C(N3CCN(Cc4ccccc4)CC3)C(=O)c3ccccc3C2=O)cc1 19.4%
COC(=O)C1=CN(c2ccc(OC)cc2OC)C(N)=C(C#N)C1c1ccccc1F (stereo not drawn) 6.46%
CC(=O)NC(=S)Nc1ccc(NC(=S)NC(=O)/C=C/c2ccco2)cc1 -1.61%
CCOC(=O)c1c(C)[nH]c(C(=O)N/N=C\c2ccccc2O)c1C -6.25%
COc1ccc(C2CN=NC23CCc2ccccc2C3=O)cc1 (stereo not drawn) 13.3%
CC(=O)Oc1c(C)cc(Cl)cc1C(=O)Nc1ccc([N+](=O)[O-])cc1Cl 10%
COc1ccc2c(c1)c(CC(=O)OCC(=O)O)c(C)n2C(=O)c1ccc(Cl)cc1 -3.12%
c1ccc2c(c1)N1CCCN=C1N2CCN1CCCCC1 6.67%
Cc1noc(NS(=O)(=O)c2ccc(N/C=C\C(=O)c3ccccc3)cc2)c1C 6.46%
COc1ccc2c3c([nH]c2c1)[C@@H](CO)N(C(=O)C1CCOCC1)CC31CCN(Cc2cccc(F)c2)CC1 -9.58%
Cc1c(Cl)cccc1NC(=O)C1CC(=O)N(C2CCCC2)C1 (stereo not drawn) 9.79%
O=C1c2ccccc2C(=O)c2c1cccc2N(CCO)CCO -5.56%
CCNC(=O)C1CCCN(C(=O)c2cc(F)ccc2C)CC1 (stereo not drawn) -1.61%
COc1ccccc1C(=O)Nc1ccc2c(c1)nc(CCNC(=O)c1ccco1)n2C -0.446%
CCCc1nc2ccccc2c(C(=O)OCC(=O)NCc2ccc3c(c2)OCO3)c1CC 3.57%
COc1ccccc1C(=O)NC(=S)/C=C1/N(C)c2ccccc2C1(C)C -3.33%
COc1ccc2c(c1)C(=O)CC(c1ccc3c(c1)OCCO3)O2 (stereo not drawn) 14.3%
C[C@H]1CCCCO[C@H](CN(C)C(=O)Cc2ccccc2)[C@@H](C)CN([C@@H](C)CO)C(=O)c2cc(N(C)C)ccc2O1 8.74%
C[C@H]1CN([C@@H](C)CO)S(=O)(=O)c2ccc(/C=C/c3ccccc3)cc2O[C@@H]1CN(C)C(=O)Nc1ccc(F)cc1 7.14%
COc1cccc(/C=N/NC(=O)C(=O)Nc2ccccc2OC(F)(F)C(F)F)c1O 8.28%
CN1c2ccc(-c3ccc(F)cc3)cc2[C@H]2[C@H](CCN2S(=O)(=O)c2ccc(F)cc2)[C@@H]1CO -7.14%
Nc1[nH]c(C(=O)c2ccccc2)c(-c2ccccc2C(F)(F)F)c1C(=O)NCCc1c[nH]c2ccccc12 31.2%
O=C(CC1Sc2ccccc2NC1=O)NNc1cccc(Cl)c1Cl (stereo not drawn) 6.67%
CC(=O)Nc1cccc(-c2ccnc3c2CC(C)(C(=O)NCc2cccs2)O3)c1 (stereo not drawn) -6.67%

Grouped by structure: those above containing a cyano group (2)
Activity change, negative = more quenching (active), inactive:
COc1cccc(-c2ccc([C@H]3[C@@H](CO)N(C(=O)c4ccccn4)[C@H]3C#N)cc2)c1 19.3%
COC(=O)C1=CN(c2ccc(OC)cc2OC)C(N)=C(C#N)C1c1ccccc1F (stereo not drawn) 6.46%
